Results as given in article PMC8906119.
Results are given in words; binding and its absence hold for the method and conditions named. In cells and extracts the contact can be indirect. Some results given as binding are weak or reduced against the parent protein; the word gives no strength.

Target: WW domain-containing E3 ubiquitin protein ligase1 (WWP1) (human (endogenous in HuCCT1, HCCC-9810, RBE)) (UniProt Q9H0M0)
Experiment: co-IP; lysates of HuCCT1, HCCC-9810 and RBE cells in Pierce IP Lysis Buffer, specific antibodies overnight at 4 °C, Protein A/G Magnetic Beads, western blotting

binding: binds
B1: Nedd4 family interacting protein1 (NDFIP1) (protein, UniProt Q9BT67 1-221)
chain: MALALAALAAVEPACGSRYQQLQNEEESGEPEQAAGDAPPPYSSISAESAAYFDYKDESGFPKPPSYNVATTLPSYDEAERTKAEATIPLVPGRDEDFVGRDDFDDADQLRIGNDGIFMLTFFMAFLFNWIGFFLSFCLTTSAAGRYGAISGFGLSLIKWILIVRFSTYFPGYFDGQYWLWWVFLVLGFLLFLRGFINYAKVRKMPETFSNLPRTRVLFIY
